Measurements from article PMC9860392, “The N-terminal domain of human mitochondrial helicase Twinkle has DNA-binding activity crucial for supporting processive DNA synthesis by polymerase γ” (The Journal of Biological Chemistry, 2022).
Results are given in words; binding and its absence hold for the method and conditions named.

Biological target: Twinkle N-terminal domain (amino acids 43-372) (human) (UniProt Q96RR1)
Assay: SEC; Superdex 200 Increase 10/300 GL, 4 °C, 0.3 ml/min; 500 μl of 61 μM (monomer) NTD in buffer C (20 mM NaH2PO4 pH 7.7, 0.5 mM EDTA, 1 mM DTT) with 200 mM NaCl and 5% glycerol; size from a calibration curve of protein standards; both purified

B1: Twinkle N-terminal domain (amino acids 43-372) (domain or fragment, UniProt Q96RR1 43-372)
chain: ETLQALDMPVLPVTATEIRQYLRGHGIPFQDGHSCLRALSPFAESSQLKGQTGVTTSFSLFIDKTTGHFLCMTSLAEGSWEDFQASVEGRGDGAREGFLLSKAPEFEDSEEVRRIWNRAIPLWELPDQEEVQLADTMFGLTKVTDDTLKRFSVRYLRPARSLVFPWFSPGGSGLRGLKLLEAKCQGDGVSYEETTIPRPSAYHNLFGLPLISRRDAEVVLTSRELDSLALNQSTGLPTLTLPRGTTCLPPALLPYLEQFRRIVFWLGDDLRSWEAAKLFARKLNPKRCFLVRPGDQQPRPLEALNGGFNLSRILRTALPAWHKSIVSFRQ
binding: no binding (tested: ∼80 μM)
